Reference: patent publication US20100189701A1, “METHODS AND COMPOSITIONS TO TREAT ARRHYTHMIAS” (priority 2007, published 2010)
For at least one compound, name, drawing or mass did not settle the structure.

Tested on: HCN2 induced current
Test: Autonomic agonists on HCN2 induced current in hMSCs
Format: cell-based

CC(=O)OCC[N+](C)(C)C [acetylcholine]
effect on expressed HCN2 current: only has an effect in the presence of the beta agonist
